Assay results reported in patent US20190224333A1 (published 2019).
No constants are given. Whether binding was seen depends on the method and setting. Some binding calls cover weakened binding; strength is not graded here.

T1: fibrin (human, UniProt P02671 36-629; P02675 45-491; P02679 27-437, limits assumed)
T1 construct: Thin polymerised fibrin layer made by layer-by-layer deposition of fibrinogen-thrombin-fibrinogen on ELISA plates, SPR chips and interferometry sensors; Human is stated for the purified fibrinogen used in biopanning; also called fibrin layer; fibrin clot
T1 sequence (looked up) 1: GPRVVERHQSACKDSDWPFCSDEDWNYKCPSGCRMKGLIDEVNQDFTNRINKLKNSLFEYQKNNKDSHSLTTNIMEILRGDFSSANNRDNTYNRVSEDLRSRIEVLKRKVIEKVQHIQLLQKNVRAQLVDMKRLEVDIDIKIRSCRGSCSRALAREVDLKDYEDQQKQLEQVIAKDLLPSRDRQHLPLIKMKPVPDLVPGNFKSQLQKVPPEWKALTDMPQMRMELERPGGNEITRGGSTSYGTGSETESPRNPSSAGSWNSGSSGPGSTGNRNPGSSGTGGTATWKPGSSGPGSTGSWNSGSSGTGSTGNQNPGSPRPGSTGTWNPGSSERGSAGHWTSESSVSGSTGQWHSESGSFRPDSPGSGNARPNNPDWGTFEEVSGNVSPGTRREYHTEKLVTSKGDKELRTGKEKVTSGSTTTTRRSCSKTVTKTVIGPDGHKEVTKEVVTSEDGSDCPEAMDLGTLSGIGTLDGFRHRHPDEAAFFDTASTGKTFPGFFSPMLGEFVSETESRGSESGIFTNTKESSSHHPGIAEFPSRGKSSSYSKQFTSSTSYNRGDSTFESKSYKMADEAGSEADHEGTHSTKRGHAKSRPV
T1 sequence (looked up) 2: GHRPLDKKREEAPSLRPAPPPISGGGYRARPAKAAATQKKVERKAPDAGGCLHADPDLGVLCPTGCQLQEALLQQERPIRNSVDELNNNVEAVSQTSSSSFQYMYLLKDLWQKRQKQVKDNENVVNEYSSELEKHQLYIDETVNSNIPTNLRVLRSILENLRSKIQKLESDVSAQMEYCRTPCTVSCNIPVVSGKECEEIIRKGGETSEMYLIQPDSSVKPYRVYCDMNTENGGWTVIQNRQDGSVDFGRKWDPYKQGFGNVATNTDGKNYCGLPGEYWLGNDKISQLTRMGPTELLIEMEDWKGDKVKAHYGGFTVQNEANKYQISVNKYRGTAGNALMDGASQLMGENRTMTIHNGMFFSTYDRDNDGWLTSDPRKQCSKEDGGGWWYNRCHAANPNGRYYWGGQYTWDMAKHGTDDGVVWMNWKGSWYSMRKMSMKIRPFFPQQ
T1 sequence (looked up) 3: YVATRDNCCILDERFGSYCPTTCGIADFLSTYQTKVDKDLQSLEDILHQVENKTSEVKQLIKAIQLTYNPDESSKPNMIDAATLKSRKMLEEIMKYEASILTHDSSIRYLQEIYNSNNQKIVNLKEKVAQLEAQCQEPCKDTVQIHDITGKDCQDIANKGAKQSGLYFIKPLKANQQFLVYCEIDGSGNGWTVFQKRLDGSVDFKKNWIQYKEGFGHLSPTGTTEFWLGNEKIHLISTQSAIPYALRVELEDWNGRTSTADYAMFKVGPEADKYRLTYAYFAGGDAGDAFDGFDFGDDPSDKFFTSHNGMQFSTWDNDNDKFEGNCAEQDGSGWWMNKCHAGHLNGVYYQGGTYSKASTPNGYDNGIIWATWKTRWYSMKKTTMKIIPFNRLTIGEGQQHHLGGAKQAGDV

B1: A2 (VHH)
VHH: QVQLLESGGGLVQPGGSLRLSCAASGFSLNDKIMTWVRQAPGKGLEWVSSISGPNGSTYYADSVKGRFTISRDNSKNTLYLQMNSLRAEDTAVYYCAGCAAASSTMEYWGQGTLVTVSS
B2: H6 (VHH)
VHH: QVQLLESGGGLVQPGGSLRLSCAASGDRFTHNDMGWVRQAPGKGLEWVSTIPTTDGSTYYADSVKGRFTISRDNSKSTLYLQMNSLRAEDTAVYYCATGYMWKAPAYVKYWGQGTLVTVSS
notes: Human-derived single domain variable fragment (sdFv, VH only) from a phagemid library; Made as soluble sdFv in E. coli HB2151 and purified on protein A; also called clone H6; fibrin-specific sdFv
B3: H6-microgels (protein)
VH: QVQLLESGGGLVQPGGSLRLSCAASGDRFTHNDMGWVRQAPGKGLEWVSTIPTTDGSTYYADSVKGRFTISRDNSKSTLYLQMNSLRAEDTAVYYCATGYMWKAPAYVKYWGQGTLVTVSSAAAEQKLISEEDLNSAAHYTDIG
modifications: conjugated to ultralow crosslinked pNIPAm-AAc microgel by EDC/NHS chemistry
B4: F5 (VHH)
VHH: QVQLLESGGGLVQPGGSLRLSCAASGDSVSYQYMGWVRQAPGKGLEWVSAIENRDGSTYYADSVKGRFTISRDNSKNTLYLQMNSLRAEDTAVYYCAGENLRSSAEELWYWGQGTLVTVSS
B5: B3a (scFv)
scFv: QVQLLESGGGLVQPGGSLRLSCAASGFTFSSYAMSWVRQAPGKGLEWVSTISSGGSATGYADSVKGRFTISRDNSKNTLYLQMNSLRAEDTAVYYCAKTYDAFDYWGQGTLVTVSSGGGGSGGGGSGGGGSTDIQMTQSPSSLSASVGDRVTITCRASQSISSYLNWYQQKPGKAPKLLIYSASNLQSGVPSRFSGSGSGTDFTLTISSLQPEDFATYYCQQSDTAPTTFGQGTKVEIKRAAA
B6: A2a (scFv)
scFv: QVQLLESGGGLVQPGGSLRLSCAASGFTFSSYAMSWVRQAPGKGLEWVSSINYSGTNTNYADSVKGRFTISRDNSKNTLYLQMNSLRAEDTAVYYCAKASNSFDYWGQGTLVTVSSGGGGSGGGGSGGGGSTDIQMTQSPSSLSASVGDRVTITCRASQSISSYLNWYQQKPGKAPKLLIYTASSLQSGVPSRFSGSGSGTDFTLTISSLQPEDFATYYCQQSDTAPTTFGQGTKVEIKRAAA
B7: A6 (VHH)
VHH: QVQLLESGGGLVQPGGSLRLSCAASGVRITDDSMSWVRQAPGKGLEWVSSIEDNSGSTYYADSVKGRFTISRDNSKNTLYLQMNSLRAEDTAVYYCAGEGWDVLRRDQAVTSWGQGTLVTVSS

Legend:
fibrin [1] = target: T1, fibrin; experiment: ELISA on fibrin-coated and fibrinogen-coated plates, clone screen
fibrin [2] = target: T1, fibrin; experiment: interferometry (ForteBio Blitz), fibrin layer on sensor
fibrin [3] = target: T1, fibrin; experiment: ELISA on fibrin

| Binder | binding (fibrin [1]) | binding (fibrin [3]) | other results |
| --- | --- | --- | --- |
| B1 | binds | – | – |
| B2 | binds | – | – |
| B3 | – | – | binding (fibrin [2]): binds |
| B4 | – | binds | – |
| B5 | – | binds | – |
| B6 | – | binds | – |
| B7 | binds | – | – |
